Assay results: patent publication US20060029952

Experiments:
Assay in all cases: activity assay
[1] = biological target: T7 gp2.5 SSB wild-type (Bacteriophage T7) (UniProt P03696); conditions: hot-start PCR; reduces primer-dimers, more specific product; effect rises up to 2 ug per 25 ul; indirect evidence of primer binding; purified recombinant protein
[2] = biological target: T7 gp2.5-F232L (Bacteriophage T7) (UniProt P03696); conditions: hot-start PCR, 1 ug; reduces primer-dimers; indirect evidence; purified recombinant protein
[3] = biological target: T7 gp2.5-Δ21C (Bacteriophage T7) (UniProt P03696); conditions: hot-start PCR, 1 ug; reduces primer-dimers; indirect evidence; purified recombinant protein

Measured: activity on this sequence

GAGGTTCCTACAGGCACCTGCCCAG / CAAAATCACCCCTCACAGTACTCTG [Numb forward and reverse PCR primers]
active: all assays above
